According to patent publication US20140179681A1, “METHODS AND COMPOSITIONS OF TARGETED DRUG DEVELOPMENT” (priority 2010, published 2014):
Where “and” joins values, the source holds several entries; their conditions need not be identical. Equal values may be shown once.

tested on: epithelial carcinoma A431 cell line; assay: MTT Cell Proliferation Assay, A431 cells; type: cell-based; details: Table 10; ratio second/first value (MDBK/A431)
Text: The following example describes the MTT Cell Proliferation Assay.
The MTT Cell Proliferation Assay is a colorimetric assay system that measures the reduction of the tetrazolium salt MTT (3-(4,5-dimethylthiazol-2-yl)-2,5-diphenyltetrazolium bromide) into insoluble formazan crystals, produced by the mitochondria of viable cells. […] The color can then be quantified by spectrophotometric means. Among the applications for the method are drug sensitivity, cytotoxicity, response to growth factors, and cell activation. The reduction of tetrazolium salts is now recognized as a safe, accurate alternative to radiometric testing.
Two replicates on each cell plate and 2 duplicate plates gave 4 individual replicates of each concentration, in each cell line. Concentrations were diluted in 100% DMSO from 25 mM stocks.
Twelve 96 well plates of each cell line were plated. Plating was done by dislodging cells as in passage protocol, counting on a hemocytometer, re-suspending in standard growth media, and plating using a multichannel pippetor.
16 μl of 25 mM stock+34 μl DMSO=8 mM starting concentrations, and serial diluted as with test compounds in same plate. […] Two replicates of each concentrations was run on each cell plate. All compound addition and cell treatments were done using aseptic technique under a laminar flow aseptic hood.
Control: 0.5% DMSO in treatment media was used as the control.
MTT dye (Thiazolyl Blue Tetrazolium Bromide, Sigma cat #M5655) stock was prepared in bulk and stored at 4° C. for use: 5 mgs/ml sterile PDS, shielded from light. 4 ul of this stock per 100 uls treatment media per well was used.
Plates were incubated overnight prior to treatment, with treatment day=Day 0. Compound treatments were prepared prior to washing cells to minimize time cells were dry at room temperature after final aspiration. Compounds were diluted in 100% DMSO in 96 well polypropylene plates: 40 μl 25 mM stock+10 μl DMSO=20 mM; 20 μl of 20 mM+30 μl DMSO=8 mM; 20 μl of 8 mM+30 μl DMSO=3.2 mM; 20 μl of 3.2 mM+30 μl DMSO=1.3 mM; 20 μl of 1.3 mM+30 μl DMSO=0.51 mM.
5.0 μl/ml were added to treatment media, in sterile, 2.2 ml deep well plates=0.5% dmso final. Ten μl of each dmso concentration was added to 2.0 ml of treatment media and then mixed using a 1200 μl multichannel pipettor. Cell plates were treated from the deep well plates. Treatment media was standard growth media containing 0.5% FBS and standard additions. This reduced FBS concentration allowed for a slower growth rate in cells.
Media was aspirated from cell plates, and washed with 200 μl/well sterile PBS. Aspirated PBS wash, and cell plates were treated with 200 μl of compound/treatment media per well, and incubated at 37° C., 5% CO2 for 3 days.
Prior to harvesting, visual observations were made under an inverted microscope. Plates were harvested by: aspirating the growth media; adding back MTT dye/100 μl treatment media; and incubating plates at 37° C. for 1 hour. MTT dye was aspirated. 100 μl/well dmso was added, and then shaken on a Bellco plate shaker for 5 minutes, at 4.5 setting.
Plates were read in a Tecan Sunrize UV plate reader, at 560 nm. Settings: Read mode, Outside Normal 2 sec; Shake settle time 3 sec. Data is reported as % inhibition, calculated for individual plates using control values from that plate.

Going from `CC(=O)c1cccc(NC(=S)Nc2ccc(NS(=O)(=O)c3ccc(C)cc3)cc2)c1` [AD4-10693] to `Cc1ccc(NC(=S)Nc2ccc(S(=O)(=O)Nc3ccc(Cl)cc3)cc2)cc1` [AD4-12413], the “MTT assay (value in parentheses)” value rises from 0.74 to 0.93.

Compared with `CC(=O)c1ccc(NC(=S)Nc2ccc(S(=O)(=O)Nc3ccccc3C)cc2)cc1` [AD4-10700], `Cc1ccccc1NS(=O)(=O)c1ccc(NC(=S)Nc2ccc(F)c(Cl)c2)cc1` [AD4-12477] is lower in “MTT assay (value in parentheses)” value: 0.98 for the first, 0.82 for the second.

Compared with `CCOc1ccc(NS(=O)(=O)c2ccc(NC(=S)Nc3ccccc3)cc2)cc1` [AD4-11344], `COc1cccc(NC(=S)Nc2ccc(S(=O)(=O)Nc3ccc(Cl)cc3)cc2)c1` [AD4-12411] is lower in “MTT assay (value in parentheses)” value: 1.01 for the first, 0.77 for the second.

First: Cc1cc(C)c(NS(=O)(=O)c2ccc(NC(=S)Nc3ccc(S(C)(=O)=O)cc3)cc2)c(C)c1 [AD4-11427]
Second: Cc1cc(C)c(NS(=O)(=O)c2ccc(NC(=S)Nc3ccc(S(N)(=O)=O)cc3)cc2)c(C)c1 [AD4-12250]
The “MTT assay (value in parentheses)” value of the first is higher: 1.21 for the first, 0.91 for the second.

Compared with `COc1ccc(NC(=S)Nc2ccc(S(=O)(=O)Nc3c(C)cc(C)cc3C)cc2)cc1OC` [AD4-11428], `CC(=O)c1cccc(NC(=S)Nc2ccc(S(=O)(=O)Nc3c(C)cc(C)cc3C)cc2)c1` [AD4-12391] is higher in “MTT assay (value in parentheses)” value: 0.74 for the first, 0.82 for the second.

`CCN(c1ccccc1)S(=O)(=O)c1ccc(NC(=S)Nc2ccccc2)cc1` [AD4-11430] and `Cc1ccccc1NS(=O)(=O)c1ccc(NC(=S)Nc2cccc(C(F)(F)F)c2)cc1` [AD4-12487] are the same in “MTT assay (value in parentheses)” value: 0.85 for the first, 0.85 for the second.

Going from `COc1ccc(NC(=S)Nc2ccc(S(=O)(=O)Nc3ccc(Cl)c(Cl)c3)cc2)cc1OC` [AD4-11432] to `COc1ccc(NC(=S)Nc2ccc(S(=O)(=O)Nc3cc(Cl)cc(Cl)c3)cc2)cc1OC` [AD4-12481], the “MTT assay (value in parentheses)” value rises from 1.00 to 1.06.

Compared with `COc1ccc(NC(=S)Nc2ccc(S(=O)(=O)Nc3ccc(Cl)c(Cl)c3)cc2)cc1OC` [AD4-12246], `COc1ccc(NC(=S)Nc2ccc(S(=O)(=O)Nc3ccc(Cl)cc3)cc2)cc1OC` [AD4-12525] is lower in “MTT assay (value in parentheses)” value: 0.96 for the first, 0.82 for the second.

First: CCN(c1ccccc1)S(=O)(=O)c1ccc(NC(=S)Nc2ccccc2)cc1 [AD4-12389]
Second: CCOc1ccccc1NC(=S)Nc1ccc(S(=O)(=O)Nc2ccc(Cl)c(Cl)c2)cc1 [AD4-12443]
The “MTT assay (value in parentheses)” value of the first is lower: 0.50 for the first, 1.03 for the second.

First: Cc1ccc(NC(=S)Nc2ccc(S(=O)(=O)Nc3cc(Cl)cc(Cl)c3)cc2)cc1C [AD4-12400]
Second: Cc1ccc(NC(=S)Nc2ccc(S(=O)(=O)Nc3cc(Cl)cc(Cl)c3)cc2)cc1Cl [AD4-12522]
The “MTT assay (value in parentheses)” value of the first is higher: 1.42 for the first, 0.86 for the second.

Compared with `CCC(C)c1ccc(NC(=S)Nc2ccc(S(=O)(=O)Nc3c(C)cc(C)cc3C)cc2)cc1` (stereo not drawn) [AD4-12403], `CCOc1ccccc1NC(=S)Nc1ccc(S(=O)(=O)Nc2c(C)cc(C)cc2C)cc1` [AD4-12465] is lower in “MTT assay (value in parentheses)” value: 1.32 for the first, 0.66 for the second.

First: CC(C)c1ccc(NC(=S)Nc2ccc(S(=O)(=O)Nc3cc(Cl)cc(Cl)c3)cc2)cc1 [AD4-12424]
Second: Cc1ccc(NC(=S)Nc2ccc(S(=O)(=O)Nc3cc(Cl)cc(Cl)c3)cc2)cc1 [AD4-12460]
The “MTT assay (value in parentheses)” value of the first is higher: 1.16 for the first, 0.87 for the second.

First: CCc1ccc(NC(=S)Nc2ccc(S(=O)(=O)Nc3ccc(Cl)c(Cl)c3)cc2)cc1 [AD4-12430]
Second: Cc1ccc(NC(=S)Nc2ccc(S(=O)(=O)Nc3ccc(Cl)c(Cl)c3)cc2)cc1 [AD4-12438]
The “MTT assay (value in parentheses)” value of the first is higher: 1.36 for the first, 1.04 for the second.

First: O=S(=O)(Nc1ccc(Cl)c(Cl)c1)c1ccc(NC(=S)Nc2cccc(F)c2)cc1 [AD4-12431]
Second: Cc1cccc(NC(=S)Nc2ccc(S(=O)(=O)Nc3ccc(Cl)c(Cl)c3)cc2)c1 [AD4-12442]
The “MTT assay (value in parentheses)” value of the first is lower: 0.87 for the first, 1.03 for the second.

Going from `COc1ccc(NS(=O)(=O)c2ccc(NC(=S)Nc3ccc(OC)c(OC)c3)cc2)cc1` [AD4-12433] to `COc1ccc(C)cc1NC(=S)Nc1ccc(S(=O)(=O)Nc2ccc(Cl)cc2)cc1` [AD4-12485], the “MTT assay (value in parentheses)” value falls from 1.32 to 1.03.

Going from `O=S(=O)(Nc1ccc(Cl)cc1)c1ccc(NC(=S)Nc2ccccc2C(F)(F)F)cc1` [AD4-12435] to `O=S(=O)(Nc1ccc(Cl)cc1)c1ccc(NC(=S)Nc2cccc(Cl)c2)cc1` [AD4-12494], the “MTT assay (value in parentheses)” value rises from 0.92 to 1.01.

First: CCc1ccc(NC(=S)Nc2ccc(S(=O)(=O)Nc3cc(Cl)cc(Cl)c3)cc2)cc1 [AD4-12436]
Second: Cc1cccc(NC(=S)Nc2ccc(S(=O)(=O)Nc3cc(Cl)cc(Cl)c3)cc2)c1 [AD4-12472]
The “MTT assay (value in parentheses)” value of the first is higher: 1.01 for the first, 0.87 for the second.

First: Cc1cc(C)cc(NC(=S)Nc2ccc(S(=O)(=O)Nc3cc(Cl)cc(Cl)c3)cc2)c1 [AD4-12461]
Second: COc1cc(NC(=S)Nc2ccc(S(=O)(=O)Nc3cc(Cl)cc(Cl)c3)cc2)cc(OC)c1 [AD4-12482]
The “MTT assay (value in parentheses)” value of the first is higher: 1.46 for the first, 0.93 for the second.

Going from `CCCCc1ccc(NC(=S)Nc2ccc(S(=O)(=O)Nc3ccc(Cl)cc3)cc2)cc1` [AD4-12501] to `O=S(=O)(Nc1ccc(Cl)cc1)c1ccc(NC(=S)Nc2ccc(Br)cc2)cc1` [AD4-12504], the “MTT assay (value in parentheses)” value rises from 1.00 to 1.41.

Going from `Cc1ccc(NC(=S)Nc2ccc(S(=O)(=O)Nc3ccc(Cl)cc3)cc2)cc1Cl` [AD4-12505] to `Cc1cc(C)cc(NC(=S)Nc2ccc(S(=O)(=O)Nc3ccc(Cl)cc3)cc2)c1` [AD4-12512], the “MTT assay (value in parentheses)” value falls from 1.06 to 0.91.

Compared with `O=S(=O)(Nc1cc(Cl)cc(Cl)c1)c1ccc(NC(=S)Nc2cccc(C(F)(F)F)c2)cc1` [AD4-12509], `COc1ccc(NC(=S)Nc2ccc(S(=O)(=O)Nc3ccccc3C)cc2)c(OC)c1` [AD4-12517] is lower in “MTT assay (value in parentheses)” value: 0.95 for the first, 0.66 for the second.

For `O=S(=O)(Nc1ccc(Cl)cc1)c1ccc(NC(=S)Nc2cccc(C(F)(F)F)c2)cc1` [AD4-12423], the “MTT assay (value in parentheses)” value was 0.91 and 0.69.

same assay, conditions: Table 11; ratio second/first value (MDBK/A431)

Compared with `CCc1cc2c(CN3CCN(Cc4ccc5c(c4)OCO5)CC3)cc(=O)oc2cc1O` [AD4-1734], `Cc1cc(C)c2oc(=O)cc(CN3CCN(Cc4ccc5c(c4)OCO5)CC3)c2c1` [AD4-10174] is higher in “MTT Follow-up (value in parentheses)” value: 1.82 for the first, 22.9 for the second.

Going from `COc1ccc(N2CCN(Cc3cc(=O)oc4cc5c(cc34)OCO5)CC2)cc1` [AD4-10209] to `CCc1cc2c(CN3CCN(C(c4ccccc4)c4ccccc4)CC3)cc(=O)oc2cc1O` [AD4-10619], the “MTT Follow-up (value in parentheses)” value falls from 20.0 to 1.03.

Compared with `CCc1cc2c(CN3CCN(Cc4ccc5c(c4)OCO5)CC3)cc(=O)oc2cc1O` [AD4-1734], `Cc1c(O)ccc2c(CN3CCN(Cc4ccc5c(c4)OCO5)CC3)cc(=O)oc12` [AD4-10491] is lower in “MTT Screen (value in parentheses)” value: 1.87 for the first, 1.83 for the second.

Compared with `CCc1cc2c(CN3CCN(c4ccc(OC)cc4)CC3)cc(=O)oc2cc1O` [AD4-10171], `CCc1cc2c(CN3CCN(Cc4ccccc4)CC3)cc(=O)oc2cc1O` [AD4-10186] is lower in “MTT Screen (value in parentheses)” value: 1.27 for the first, 1.14 for the second.

Compared with `Cc1cc(C)c2oc(=O)cc(CN3CCN(Cc4ccc5c(c4)OCO5)CC3)c2c1` [AD4-10174], `Cc1cc(C)c2c(CN3CCN(Cc4ccc5c(c4)OCO5)CC3)cc(=O)oc2c1` [AD4-10182] is higher in “MTT Screen (value in parentheses)” value: 3.80 for the first, 6.39 for the second.

Compared with `O=c1cc(CN2CCN(Cc3ccc4c(c3)OCO4)CC2)c2cc3c(cc2o1)CCC3` [AD4-10179], `CC(C)c1ccc2oc(=O)cc(CN3CCN(Cc4ccc5c(c4)OCO5)CC3)c2c1` [AD4-10192] is higher in “MTT Screen (value in parentheses)” value: 1.05 for the first, 2.62 for the second.

First: O=c1cc(CN2CCN(Cc3ccccc3)CC2)c2cc(Cl)c(O)cc2o1 [AD4-10180]
Second: CCc1cc2c(CN3CCN(Cc4ccccc4)CC3)cc(=O)oc2cc1O [AD4-10631]
The “MTT Screen (value in parentheses)” value of the first is higher: 2.17 for the first, 1.05 for the second.

First: Cc1ccc2c(CN3CCN(Cc4ccc5c(c4)OCO5)CC3)cc(=O)oc2c1C [AD4-10181]
Second: Cc1c(O)ccc2c(CN3CCN(Cc4ccc5c(c4)OCO5)CC3)cc(=O)oc12 [AD4-10637]
The “MTT Screen (value in parentheses)” value of the first is higher: 6.11 for the first, 1.99 for the second.

For `CC(C)c1ccc2oc(=O)cc(CN3CCN(C/C=C/c4ccccc4)CC3)c2c1` [AD4-10188], the “MTT Screen (value in parentheses)” value was 1.80.
